Results from PubChem BioAssay AID2685 (National Center for Advancing Translational Sciences (NCATS), 2010).
This is one part of the list. Shown are side measurements of this screen, not its main read-out; they come without a call. Most of these compounds were active or inconclusive in the main read-out, so they are no random draw. Potencies come from curve fits of mixed quality, noted in brackets.

Test: qHTS Assay for Lipid Storage Modulators in Drosophila S3 Cells;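 as to cell number change: cells counted by Cell Tracker Red CMTPX staining in the red channel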
Conditions: BODIPY lipid droplet fluorescence, 18-24 h; for cell number change: measured here: cell count max response, cells fed with added oleic acid
Method in brief: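 Drosophila S3 cells got compounds at several concentrations plus oleic acid (400 uM solution). Laser-scanning cytometry with 488 nm excitation read lipid droplets at 500-530 nm and cells at 575-640 nm. Percent activity was relative to 20 uM Triacsin C.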

[1] = measured here: lipid fluorescence (Fed channel) AC50, cells fed with added oleic acid
[2] = measured here: cell number channel AC50, cells fed with added oleic acid

SMILES	cell number change	AC50 [1]	AC50 [2]
CC1CCCC(NC(=O)CCC(=O)NCc2ccccc2)C1C (configuration not stated)	-11%	0.58 µM [rising, full curve]	
O=C(Cc1ccccc1)c1c[nH]c(C(=O)NCCCn2ccnc2)c1	-59.8%	29.1 µM [falling, single point]	16.4 µM [falling, partial curve, poor fit]
O=C(NCc1ccccc1)C(=O)NCC1OCCN1C(=O)c1ccc(Cl)cc1 (configuration not stated)	15.8%	0.164 µM [rising, full curve, poor fit]	
O=C(Cn1c2c(c(-c3ccccc3Cl)cc1=O)CCC2)NCC1CCCO1 (configuration not stated)	35.1%		20.6 µM [rising, single point]
COc1ccc(C(=O)COC(=O)c2ccc([N+](=O)[O-])s2)cc1OC	-8.96%	0.259 µM [rising, full curve, poor fit]	
CC(CN1CCCC1)OC(=O)c1cccc(F)c1 (configuration not stated)	1.32%	5.17 µM [rising, full curve]	
CCN(CC)c1ncnc2sc(C(=O)N3CCN(c4ccc(OC)cc4)CC3)c(C)c12			0.461 µM [rising, single point]
CC(=O)c1cccc(NC(=O)NNC(=O)CCC(=O)Nc2ccc(C)c(C)c2)c1	7.81%		
Cc1nc(N2CCCCC2)c2c(C)c(C(=O)Nc3ccc4c(c3)OCCO4)sc2n1	-23.3%	11.6 µM [falling, partial curve, poor fit]	
Cc1cccc(OCC(=O)Nc2ccc3c(c2)OCCO3)c1	93.8%	29.1 µM [rising, single point]	25.9 µM [rising, single point]
N=C(N)SCc1ccc(Cl)cc1Cl	17%	25.9 µM [rising, single point]	
O=C(Nc1cc(S(=O)(=O)Nc2ccc(Cl)cc2)ccc1N1CCCCC1)c1ccc(F)cc1	-11.6%	29.1 µM [falling, single point]	
CC1=NOC(=O)/C1=C\c1ccc(-c2cccc(Cl)c2)o1	-56.3%		29.1 µM [falling, single point]
COc1ccc(/C=C(\C#N)C(=O)NCc2ccccc2)cc1O	-16.2%	29.1 µM [rising, single point]	
O=C(COC(=O)c1cc(=O)[nH]c2ccccc12)NCc1ccc(F)cc1	1.79%	29.1 µM [rising, single point]	
COc1ccc2nc(N(CCN(C)C)C(=O)c3ccc4ccccc4c3)sc2c1	19.8%	6.51 µM [rising, partial curve]	
Cc1ccc(S(=O)(=O)N2[C@@H](c3ccc(F)cc3)C(C(=O)O)=CC[C@H]2c2ccc(C(C)C)cc2)cc1	-42.4%	20.6 µM [falling, single point]	4.11 µM [falling, full curve]
Cc1cccc(OCC2=NS(=O)(=O)c3ccccc3N2)c1			0.461 µM [rising, single point]
Cc1ccnn2cc3c(=O)n(C)c(=O)n(C)c3c12	-7.79%		1.64 µM [falling, partial curve]
Cc1ccc(S(=O)(=O)Nc2ccc(Br)cc2/C=N/n2cnnc2)cc1	43%		29.1 µM [rising, single point]

2 entries picked at random from those above:
SMILES	cell number change	AC50 [1]	AC50 [2]
COc1ccc(C(=O)COC(=O)c2ccc([N+](=O)[O-])s2)cc1OC	-8.96%	0.259 µM [rising, full curve, poor fit]	
CC(=O)c1cccc(NC(=O)NNC(=O)CCC(=O)Nc2ccc(C)c(C)c2)c1	7.81%		

Next structures follow.

SMILES	cell number change	AC50 [1]	AC50 [2]
Cc1cc(NC(=O)CCc2ccc(S(=O)(=O)N3CCOCC3)cc2)n(-c2ccccc2)n1		20.6 µM [falling, partial curve]	
C=CCN(C(=O)CCC(=O)Nc1cc(C)on1)C(C(=O)NC1CCCC1)c1ccc(Cl)cc1 (configuration not stated)	10%	29.1 µM [rising, partial curve, poor fit]	
CC(=O)Nc1cccc(OCCCOc2ccc([N+](=O)[O-])cc2)c1	17.2%	3.26 µM [rising, partial curve]	
COc1ccccc1CNCC(c1ccccc1)c1ccccc1		0.231 µM [falling, full curve, poor fit]	
COc1cccc(C(=O)NNC(=O)c2cccc(F)c2)c1	24%	6.51 µM [rising, single point]	
C=CCNC(=O)COc1c(C)ccc(C)c1C	52.5%		
OCC[C@@H]1C[C@H](O)[C@@H](O)[C@@]2(OCCCc3ccccc32)O1	34.4%		2.31 µM [rising, partial curve, poor fit]
CCCc1nnc(NC(=O)c2c(O)c3c([nH]c2=O)CCCC3)s1	3.86%	7.31 µM [rising, partial curve, poor fit]	
O=S1(=O)N=C(Nc2ccc(O)cc2)c2ccccc21	-11.3%		
O=c1[nH]c(-c2ccccn2)cc2ccccc12	1.49%		6.51 µM [rising, single point]
O=C(N/N=C/c1ccc([N+](=O)[O-])cc1)c1ccc(COc2ccccc2-c2ccccc2)cc1		0.58 µM [rising, single point]	
CCc1ccc(NC(=S)N2CCN(c3cccc(C(F)(F)F)c3)CC2)cc1	-50.9%		25.9 µM [falling, single point]
CCOC(=O)c1sc(NC(=O)c2ccco2)nc1-c1ccccc1	-58.8%		29.1 µM [falling, single point]
CC(NC(=S)Nc1ccccc1Cl)C(c1cccs1)N1CCCC1 (configuration not stated)	-32.2%		4.61 µM [falling, partial curve, poor fit]
Cc1cc(OCC(O)CN2C(C)CCCC2C)ccc1C(C)C (configuration not stated)	-25%	32.6 µM [falling, partial curve, poor fit]	
O=C(NCc1cccnc1)c1cccc(S(=O)(=O)N2CCCC2)c1	-9.52%	18.4 µM [rising, single point]	
CN(Cc1ccccc1)C(=O)C(=O)c1cn(CC(=O)N2CCCC2)c2ccccc12	10.4%		
COc1ccc(-c2nc(SCc3ccccc3)n(C(=O)c3ccco3)n2)cc1	-14%	29.1 µM [falling, single point]	
Cc1ccc(CC2S/C(=C(/C#N)C(=O)NCc3ccco3)N(c3ccccc3)C2=O)cc1 (configuration not stated)	-0.388%	9.2 µM [rising, partial curve]	
